Measured values as given in the supplement of paper PMC10849652.
The other results are listed elsewhere or left out.

Amino acid sequences for entries named in this document (tags omitted). A change or cut given only in a name is not applied to a line headed by its entry.
UniProt Q9H6S1, whole entry, looked up: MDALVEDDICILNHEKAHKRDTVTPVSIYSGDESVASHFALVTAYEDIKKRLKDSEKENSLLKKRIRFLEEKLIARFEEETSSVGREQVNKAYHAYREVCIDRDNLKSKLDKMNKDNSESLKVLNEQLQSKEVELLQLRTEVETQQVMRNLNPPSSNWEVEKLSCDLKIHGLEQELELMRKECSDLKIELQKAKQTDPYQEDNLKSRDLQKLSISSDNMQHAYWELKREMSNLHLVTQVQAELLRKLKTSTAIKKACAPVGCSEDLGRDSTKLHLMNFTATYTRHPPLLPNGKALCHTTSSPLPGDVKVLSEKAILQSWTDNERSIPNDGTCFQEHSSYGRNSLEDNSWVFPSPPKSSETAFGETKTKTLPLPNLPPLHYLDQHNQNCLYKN
UniProt O75882: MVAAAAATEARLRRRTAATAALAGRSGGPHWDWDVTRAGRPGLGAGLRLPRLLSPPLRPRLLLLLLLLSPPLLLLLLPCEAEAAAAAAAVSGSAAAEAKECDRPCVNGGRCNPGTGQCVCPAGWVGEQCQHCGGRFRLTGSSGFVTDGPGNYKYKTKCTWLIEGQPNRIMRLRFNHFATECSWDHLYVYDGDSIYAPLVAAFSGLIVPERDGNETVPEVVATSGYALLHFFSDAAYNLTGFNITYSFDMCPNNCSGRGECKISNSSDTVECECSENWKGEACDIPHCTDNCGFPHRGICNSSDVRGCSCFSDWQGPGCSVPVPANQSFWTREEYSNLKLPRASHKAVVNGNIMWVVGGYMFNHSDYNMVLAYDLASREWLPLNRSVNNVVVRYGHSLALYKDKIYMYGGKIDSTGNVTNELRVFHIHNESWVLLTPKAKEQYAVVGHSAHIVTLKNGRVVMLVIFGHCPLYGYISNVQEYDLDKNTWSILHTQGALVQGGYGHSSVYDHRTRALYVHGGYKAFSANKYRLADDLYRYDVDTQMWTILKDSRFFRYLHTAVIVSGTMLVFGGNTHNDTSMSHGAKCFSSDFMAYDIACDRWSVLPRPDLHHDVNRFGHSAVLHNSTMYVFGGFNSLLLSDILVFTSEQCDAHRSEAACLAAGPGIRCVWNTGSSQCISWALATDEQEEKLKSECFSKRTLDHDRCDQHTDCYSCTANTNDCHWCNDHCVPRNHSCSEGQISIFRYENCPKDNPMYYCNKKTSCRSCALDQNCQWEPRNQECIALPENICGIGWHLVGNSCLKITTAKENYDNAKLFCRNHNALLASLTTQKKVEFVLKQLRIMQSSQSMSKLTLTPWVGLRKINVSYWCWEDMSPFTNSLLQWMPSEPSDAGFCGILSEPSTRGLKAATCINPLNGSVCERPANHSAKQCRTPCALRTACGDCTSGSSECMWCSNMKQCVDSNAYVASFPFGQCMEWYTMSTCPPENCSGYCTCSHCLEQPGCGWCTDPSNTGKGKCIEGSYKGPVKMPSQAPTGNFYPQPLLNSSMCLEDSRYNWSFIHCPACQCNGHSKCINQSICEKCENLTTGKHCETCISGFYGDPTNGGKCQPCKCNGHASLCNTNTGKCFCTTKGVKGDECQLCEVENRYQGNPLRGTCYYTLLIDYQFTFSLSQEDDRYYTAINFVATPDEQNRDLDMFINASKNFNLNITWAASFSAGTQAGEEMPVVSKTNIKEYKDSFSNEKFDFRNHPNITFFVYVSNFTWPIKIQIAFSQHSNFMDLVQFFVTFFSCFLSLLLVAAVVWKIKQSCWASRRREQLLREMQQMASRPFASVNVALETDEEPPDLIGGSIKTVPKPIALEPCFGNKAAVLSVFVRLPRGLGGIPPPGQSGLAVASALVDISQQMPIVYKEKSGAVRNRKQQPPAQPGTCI
UniProt Q96DT6: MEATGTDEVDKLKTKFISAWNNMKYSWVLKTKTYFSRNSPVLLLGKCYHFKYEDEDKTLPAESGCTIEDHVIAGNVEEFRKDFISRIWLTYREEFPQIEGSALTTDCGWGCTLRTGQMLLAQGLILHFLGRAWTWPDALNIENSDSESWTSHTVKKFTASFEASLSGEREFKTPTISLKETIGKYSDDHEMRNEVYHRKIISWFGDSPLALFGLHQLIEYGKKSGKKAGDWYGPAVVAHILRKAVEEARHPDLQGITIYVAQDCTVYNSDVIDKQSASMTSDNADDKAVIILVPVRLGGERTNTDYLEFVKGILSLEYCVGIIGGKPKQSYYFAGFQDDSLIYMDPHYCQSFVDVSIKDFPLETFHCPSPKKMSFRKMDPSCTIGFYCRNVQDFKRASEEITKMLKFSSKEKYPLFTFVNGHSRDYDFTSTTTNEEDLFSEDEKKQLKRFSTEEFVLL
UniProt Q96IX5: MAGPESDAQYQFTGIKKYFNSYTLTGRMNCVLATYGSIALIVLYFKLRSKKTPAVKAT
UniProt P48047: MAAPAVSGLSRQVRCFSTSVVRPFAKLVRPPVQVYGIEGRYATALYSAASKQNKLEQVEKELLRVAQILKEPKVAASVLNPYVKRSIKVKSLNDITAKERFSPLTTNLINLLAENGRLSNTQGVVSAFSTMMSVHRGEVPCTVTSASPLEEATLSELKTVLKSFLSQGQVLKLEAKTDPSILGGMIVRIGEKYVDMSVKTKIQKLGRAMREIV
UniProt Q9UBL3, whole entry, looked up: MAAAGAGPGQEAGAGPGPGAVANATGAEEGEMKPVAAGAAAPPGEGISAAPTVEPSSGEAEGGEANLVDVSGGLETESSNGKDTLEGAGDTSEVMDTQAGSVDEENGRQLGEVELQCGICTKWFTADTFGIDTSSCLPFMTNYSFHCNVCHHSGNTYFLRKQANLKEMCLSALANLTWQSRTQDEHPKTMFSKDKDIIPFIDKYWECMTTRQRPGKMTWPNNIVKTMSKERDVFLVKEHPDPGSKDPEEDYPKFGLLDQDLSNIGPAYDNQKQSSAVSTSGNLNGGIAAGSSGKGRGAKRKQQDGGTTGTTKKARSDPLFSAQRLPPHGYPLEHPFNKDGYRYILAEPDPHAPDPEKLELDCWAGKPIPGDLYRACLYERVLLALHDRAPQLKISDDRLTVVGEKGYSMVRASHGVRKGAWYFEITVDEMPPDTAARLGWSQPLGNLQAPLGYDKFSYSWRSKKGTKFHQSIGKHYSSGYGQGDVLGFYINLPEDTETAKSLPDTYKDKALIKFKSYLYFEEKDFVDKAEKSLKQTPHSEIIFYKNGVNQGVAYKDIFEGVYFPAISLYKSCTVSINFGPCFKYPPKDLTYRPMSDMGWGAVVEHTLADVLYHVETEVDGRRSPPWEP
UniProt Q7Z3C6: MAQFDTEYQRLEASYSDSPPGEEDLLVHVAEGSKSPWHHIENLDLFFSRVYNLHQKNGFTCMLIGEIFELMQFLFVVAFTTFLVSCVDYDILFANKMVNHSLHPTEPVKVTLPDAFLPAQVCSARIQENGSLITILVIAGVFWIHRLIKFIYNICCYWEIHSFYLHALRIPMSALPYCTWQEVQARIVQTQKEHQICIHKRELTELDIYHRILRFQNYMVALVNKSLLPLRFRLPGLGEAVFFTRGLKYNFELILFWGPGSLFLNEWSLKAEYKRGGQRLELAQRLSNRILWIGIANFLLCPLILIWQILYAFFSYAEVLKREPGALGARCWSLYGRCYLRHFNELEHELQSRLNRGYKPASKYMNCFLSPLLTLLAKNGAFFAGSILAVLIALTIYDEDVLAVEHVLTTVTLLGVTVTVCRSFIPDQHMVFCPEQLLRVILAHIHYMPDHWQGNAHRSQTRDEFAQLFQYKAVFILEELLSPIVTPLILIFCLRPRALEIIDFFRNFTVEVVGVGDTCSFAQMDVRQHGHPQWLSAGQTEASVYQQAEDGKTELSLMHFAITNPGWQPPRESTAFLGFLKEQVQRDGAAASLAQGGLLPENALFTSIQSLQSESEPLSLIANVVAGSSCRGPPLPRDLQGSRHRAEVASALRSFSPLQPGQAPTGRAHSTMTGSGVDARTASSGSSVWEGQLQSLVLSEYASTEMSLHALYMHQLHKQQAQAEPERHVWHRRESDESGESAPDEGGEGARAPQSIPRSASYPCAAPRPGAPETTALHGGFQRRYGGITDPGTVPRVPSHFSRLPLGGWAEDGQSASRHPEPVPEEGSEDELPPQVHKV
UniProt Q8N9N2: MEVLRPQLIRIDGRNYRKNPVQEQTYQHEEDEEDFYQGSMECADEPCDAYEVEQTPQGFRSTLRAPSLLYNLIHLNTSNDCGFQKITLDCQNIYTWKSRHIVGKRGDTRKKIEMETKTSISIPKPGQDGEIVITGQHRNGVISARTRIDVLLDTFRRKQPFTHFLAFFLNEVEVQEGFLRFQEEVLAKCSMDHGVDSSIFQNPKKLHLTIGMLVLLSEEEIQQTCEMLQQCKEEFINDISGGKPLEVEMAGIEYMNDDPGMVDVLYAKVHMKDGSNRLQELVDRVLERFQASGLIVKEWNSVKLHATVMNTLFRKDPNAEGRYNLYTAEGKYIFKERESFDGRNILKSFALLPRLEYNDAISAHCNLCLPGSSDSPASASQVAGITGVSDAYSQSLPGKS
UniProt P56381: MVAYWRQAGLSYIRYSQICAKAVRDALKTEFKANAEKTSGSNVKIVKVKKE
UniProt O75348, whole entry, looked up: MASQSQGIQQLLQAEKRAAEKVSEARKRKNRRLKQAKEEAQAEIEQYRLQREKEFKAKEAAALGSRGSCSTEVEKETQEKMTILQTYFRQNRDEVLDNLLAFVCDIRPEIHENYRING
UniProt Q6UW56: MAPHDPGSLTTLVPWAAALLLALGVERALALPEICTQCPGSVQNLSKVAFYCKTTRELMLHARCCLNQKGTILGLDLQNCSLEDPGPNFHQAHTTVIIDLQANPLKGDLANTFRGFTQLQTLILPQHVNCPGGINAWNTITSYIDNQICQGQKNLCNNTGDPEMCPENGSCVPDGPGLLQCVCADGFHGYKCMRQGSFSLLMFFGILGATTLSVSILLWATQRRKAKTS
UniProt O94817, whole entry, looked up: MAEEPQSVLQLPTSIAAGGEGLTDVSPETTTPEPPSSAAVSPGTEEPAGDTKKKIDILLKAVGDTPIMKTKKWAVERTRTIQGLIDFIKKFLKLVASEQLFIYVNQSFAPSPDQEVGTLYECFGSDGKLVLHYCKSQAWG
UniProt P16615: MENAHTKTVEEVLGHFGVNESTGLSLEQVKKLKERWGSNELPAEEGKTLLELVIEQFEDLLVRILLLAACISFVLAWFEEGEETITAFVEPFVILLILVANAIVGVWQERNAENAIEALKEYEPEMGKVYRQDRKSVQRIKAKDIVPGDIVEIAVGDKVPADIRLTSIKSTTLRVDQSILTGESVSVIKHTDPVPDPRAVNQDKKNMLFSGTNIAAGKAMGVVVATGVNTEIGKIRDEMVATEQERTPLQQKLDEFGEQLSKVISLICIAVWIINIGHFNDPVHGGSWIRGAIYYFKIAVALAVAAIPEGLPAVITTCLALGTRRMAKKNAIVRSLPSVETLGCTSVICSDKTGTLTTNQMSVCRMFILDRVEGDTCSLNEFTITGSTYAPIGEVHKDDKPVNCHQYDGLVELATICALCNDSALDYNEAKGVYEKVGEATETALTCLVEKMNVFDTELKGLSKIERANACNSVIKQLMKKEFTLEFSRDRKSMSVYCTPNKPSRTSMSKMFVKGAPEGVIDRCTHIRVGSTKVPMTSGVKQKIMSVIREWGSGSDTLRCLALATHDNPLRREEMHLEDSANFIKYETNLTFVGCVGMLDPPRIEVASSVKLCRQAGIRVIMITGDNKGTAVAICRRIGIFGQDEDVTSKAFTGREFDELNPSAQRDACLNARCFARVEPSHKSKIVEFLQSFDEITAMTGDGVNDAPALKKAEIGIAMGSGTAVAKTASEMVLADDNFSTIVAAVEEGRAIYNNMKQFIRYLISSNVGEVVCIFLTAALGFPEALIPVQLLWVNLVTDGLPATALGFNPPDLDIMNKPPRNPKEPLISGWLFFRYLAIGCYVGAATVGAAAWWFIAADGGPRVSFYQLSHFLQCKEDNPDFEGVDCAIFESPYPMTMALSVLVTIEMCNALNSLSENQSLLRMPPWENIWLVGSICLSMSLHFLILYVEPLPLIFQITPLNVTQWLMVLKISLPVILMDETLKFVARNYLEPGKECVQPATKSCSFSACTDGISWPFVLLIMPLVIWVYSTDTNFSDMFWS
UniProt Q96GX2: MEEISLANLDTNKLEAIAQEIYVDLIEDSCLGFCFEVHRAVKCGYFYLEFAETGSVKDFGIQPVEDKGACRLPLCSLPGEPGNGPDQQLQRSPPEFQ
UniProt P15336: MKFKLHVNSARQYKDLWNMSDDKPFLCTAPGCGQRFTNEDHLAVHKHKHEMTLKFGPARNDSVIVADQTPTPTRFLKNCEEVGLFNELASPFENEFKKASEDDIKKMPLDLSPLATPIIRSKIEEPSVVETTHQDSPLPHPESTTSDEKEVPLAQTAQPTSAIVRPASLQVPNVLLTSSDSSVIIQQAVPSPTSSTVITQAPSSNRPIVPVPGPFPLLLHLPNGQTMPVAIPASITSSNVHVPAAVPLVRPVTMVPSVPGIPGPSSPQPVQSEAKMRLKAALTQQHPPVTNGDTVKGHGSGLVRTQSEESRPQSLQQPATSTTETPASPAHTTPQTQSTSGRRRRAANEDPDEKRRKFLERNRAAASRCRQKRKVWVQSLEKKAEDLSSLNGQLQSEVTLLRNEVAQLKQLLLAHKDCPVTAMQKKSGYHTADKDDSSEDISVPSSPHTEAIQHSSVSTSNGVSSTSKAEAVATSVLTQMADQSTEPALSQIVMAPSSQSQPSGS

Legend:
Test in all cases: log2 fold change, soluble protein after heating vs DMSO (PISA); higher = thermal stabilisation; K562 lysate, 10 uM; active = over 0.2 and 3.5 SD of the protein, either way, in both replicates (recomputed)
[1] = compound: NCC(=O)Nc1ccc(-n2nc(C(F)(F)F)cc2-c2ccc3c(ccc4ccccc43)c2)cc1
How it was run: (§1)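 K562 pellets were dounce-homogenised in PBS pH 7.4 containing 1 mM MgCl2, and the crude extract, at 1 mg/mL protein, was exposed to 10 μM compound for 30 min. Aliquots were heated for 3 min across 48°C-58°C, pooled, brought to 0.5% NP-40 at 4°C and spun at 21,000xg for 90 min, with the supernatant taken as soluble protein. TMTpro 16plex LC-MS/MS with equalised channel sums quantified that protein. Values are log-two fold changes in thermal stability relative to solvent controls, taken from duplicates.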

vorinostat = compound: O=C(CCCCCCC(=O)Nc1ccccc1)NO [vorinostat]
How it was run: as §1

silmitasertib = compound: O=C(O)c1ccc2c(c1)nc(Nc1cccc(Cl)c1)c1ccncc12 [silmitasertib]
How it was run: as §1

[2] = compound: O=C1NC(=O)C(c2cnc3ccccn23)=C1c1cn2c3c(cc(F)cc13)CN(C(=O)N1CCCCC1)CC2
How it was run: as §1

entospletinib = compound: c1cn2cc(-c3ccc4cn[nH]c4c3)nc(Nc3ccc(N4CCOCC4)cc3)c2n1 [entospletinib]
How it was run: as §1

Row | Target | log2 fold change [1] | log2 fold change (vorinostat) | log2 fold change (silmitasertib) | log2 fold change [2] | log2 fold change (entospletinib)
1 | ATP2B4 (UniProt P23634) | inactive: -0.026 | inactive: -0.042 | inactive: -0.003 | inactive: -0.079 | inactive: -0.042
2 | ATXN2L (UniProt H3BUF6) | inactive: 0.05 | inactive: -0.014 | inactive: -0.059 | inactive: -0.209 | inactive: -0.295
3 | AZI2 (UniProt Q9H6S1) | inactive: 0.06 | inactive: -0.028 | inactive: 0.034 | inactive: 0.048 | inactive: 0.079
4 | ATRN (UniProt O75882) | inactive: -0.129 | inactive: 0.268 | inactive: 0.028 | inactive: -0.053 | inactive: -0.068
5 | ATG4C (UniProt Q96DT6) | inactive: -0.017 | inactive: 0.034 | inactive: 0.047 | inactive: -0.023 | inactive: -0.042
6 | ATP5MD (UniProt Q96IX5) | inactive: -0.164 | inactive: -0.103 | inactive: 0.098 | inactive: 0.069 | inactive: 0.06
7 | ATP9B (UniProt O43861) | inactive: 0.013 | inactive: 0.012 | inactive: 0.005 | inactive: -0.045 | inactive: 0
8 | ATP1A4 (UniProt Q13733) | inactive: -0.014 | inactive: 0.052 | inactive: 0.024 | inactive: -0.028 | inactive: 0.008
9 | ATP5PO (UniProt P48047) | inactive: 0.006 | inactive: 0.151 | inactive: 0.003 | inactive: 0.001 | inactive: 0.018
10 | B3GNT2 (UniProt Q9NY97) | inactive: 0.031 | inactive: 0.182 | inactive: 0.015 | inactive: 0.012 | inactive: 0.034
11 | ATG101 (UniProt Q9BSB4) | inactive: -0.01 | inactive: 0.087 | inactive: -0.069 | inactive: -0.094 | inactive: -0.001
12 | ATP6V1E2 (UniProt Q96A05) | inactive: 0.046 | inactive: 0.114 | inactive: -0.006 | inactive: 0.003 | inactive: -0.003
13 | ASH2L (UniProt Q9UBL3) | inactive: -0.025 | inactive: -0.084 | inactive: -0.005 | inactive: -0.025 | inactive: 0.002
14 | ATG9A (UniProt Q7Z3C6) | inactive: -0.026 | inactive: 0.013 | inactive: 0.034 | inactive: 0.054 | inactive: 0.006
15 | ATOX1 (UniProt O00244) | inactive: -0.051 | inactive: 0.095 | inactive: 0.009 | inactive: 0.089 | inactive: -0.078
16 | ASCC3 (UniProt Q8N3C0) | inactive: 0.094 | inactive: -0.127 | inactive: 0.031 | inactive: 0.016 | inactive: -0.006
17 | ASCC1 isoform 2 (UniProt Q8N9N2) | inactive: 0.029 | inactive: -0.225 | inactive: 0.052 | inactive: -0.02 | inactive: -0.017
18 | ATP5F1E (UniProt P56381) | inactive: -0.021 | inactive: 0.007 | inactive: 0.032 | inactive: -0.036 | inactive: -0.035
19 | ATP6V1C1 (UniProt P21283) | inactive: -0.025 | inactive: 0.01 | inactive: 0.006 | inactive: -0.032 | inactive: 0.019
20 | ATXN10 (UniProt Q9UBB4) | inactive: 0.017 | inactive: -0.049 | inactive: 0.006 | inactive: -0.022 | inactive: 0.005
21 | ATP2B1 isoform 1 (UniProt P20020) | inactive: 0.01 | inactive: 0.008 | inactive: -0.004 | inactive: -0.025 | inactive: -0.028
22 | ATG10 (UniProt Q9H0Y0) | inactive: -0.032 | active: -0.242 | inactive: 0.049 | inactive: -0.023 | inactive: 0.034
23 | ASNS (UniProt P08243) | inactive: 0.006 | active: -0.373 | inactive: -0.01 | inactive: -0.008 | inactive: 0.029
24 | ATP6V1G1 (UniProt O75348) | inactive: 0.04 | inactive: -0.096 | inactive: 0.006 | inactive: -0.014 | inactive: 0.008
25 | ATG7 (UniProt O95352) | inactive: 0.008 | active: -0.47 | inactive: 0.005 | inactive: -0.005 | inactive: 0.001
26 | ATRAID isoform 3 (UniProt Q6UW56) | inactive: 0.01 | inactive: 0.052 | inactive: -0.067 | inactive: -0.112 | inactive: 0.043
27 | ATG4B (UniProt Q9Y4P1) | inactive: -0.009 | active: -0.274 | inactive: 0.043 | inactive: -0.014 | inactive: 0.021

Row | Target | log2 fold change [1] | log2 fold change (vorinostat) | log2 fold change (silmitasertib) | log2 fold change [2] | log2 fold change (entospletinib)
28 | ATE1 isoform 2 (UniProt O95260) | inactive: -0.068 | active: -0.444 | inactive: 0.041 | inactive: -0.01 | inactive: -0.008
29 | ATP1A1 (UniProt P05023) | inactive: -0.003 | inactive: 0.099 | inactive: -0.032 | inactive: -0.002 | inactive: 0.01
30 | ATP7B (UniProt P35670) | inactive: 0.023 | inactive: -0.132 | inactive: 0.026 | inactive: 0.086 | inactive: 0.026
31 | ATP6V1E1 (UniProt P36543) | inactive: -0.048 | inactive: 0.109 | inactive: -0.025 | inactive: 0.007 | inactive: -0.003
32 | ATP6V1D (UniProt Q9Y5K8) | inactive: -0.042 | inactive: 0.125 | inactive: -0.002 | inactive: 0.009 | inactive: 0.01
33 | ATF7IP isoform 4 (UniProt Q6VMQ6) | inactive: -0.009 | inactive: -0.014 | inactive: -0.006 | inactive: -0.019 | inactive: -0.033
34 | ASPSCR1 (UniProt Q9BZE9) | inactive: -0.021 | inactive: -0.073 | inactive: -0.008 | inactive: 0.012 | inactive: -0.014
35 | ATR (UniProt Q13535) | inactive: 0.044 | inactive: -0.131 | active: 0.509 | inactive: -0.01 | inactive: 0.046
36 | ATG12 (UniProt O94817) | inactive: -0.021 | inactive: -0.13 | inactive: 0.009 | inactive: 0.02 | inactive: -0.02
37 | ATP2A2 (UniProt P16615) | inactive: -0.034 | inactive: -0.027 | inactive: 0.023 | inactive: 0.019 | inactive: 0.026
38 | ATP6AP2 (UniProt O75787) | inactive: -0.017 | inactive: 0.106 | inactive: 0.004 | inactive: 0.005 | inactive: -0.044
39 | ATP5F1A (UniProt P25705) | inactive: -0.007 | inactive: 0.118 | inactive: 0.008 | inactive: -0.024 | inactive: -0.012
40 | ATXN7L3B (UniProt Q96GX2) | inactive: -0.012 | inactive: 0.077 | inactive: -0.048 | inactive: 0.022 | inactive: 0.062
41 | ATM (UniProt Q13315) | inactive: 0.058 | inactive: -0.093 | inactive: 0.118 | inactive: -0.033 | inactive: 0.036
42 | AXIN1 (UniProt O15169) | inactive: 0.014 | inactive: -0.024 | inactive: 0.04 | inactive: 0.063 | inactive: 0.034
43 | ATP7A isoform 3 (UniProt Q04656) | inactive: 0.01 | inactive: -0.205 | inactive: 0.039 | inactive: 0.026 | inactive: 0.017
44 | ATRIP (UniProt Q8WXE1) | inactive: -0.088 | inactive: -0.28 | inactive: 0.229 | inactive: 0.039 | inactive: -0.009
45 | ATP13A1 (UniProt Q9HD20) | inactive: -0.009 | inactive: -0.094 | inactive: 0.03 | inactive: -0.02 | inactive: -0.03
46 | AURKA (UniProt O14965) | inactive: -0.008 | inactive: -0.236 | inactive: 0.135 | inactive: 0.1 | inactive: 0.167
47 | ASNA1 (UniProt O43681) | inactive: -0.043 | inactive: 0.034 | inactive: 0.021 | inactive: -0.014 | inactive: -0.001
48 | ATG3 (UniProt Q9NT62) | inactive: -0.038 | inactive: 0.004 | inactive: 0.014 | inactive: 0.061 | inactive: 0
49 | ATP5PB (UniProt P24539) | inactive: 0.01 | inactive: 0.125 | inactive: -0.014 | inactive: -0.021 | inactive: -0.011
50 | ATXN2L (UniProt Q8WWM7) | inactive: 0.008 | inactive: -0.083 | inactive: -0.073 | inactive: -0.109 | inactive: 0.004
51 | B3GNT5 (UniProt Q9BYG0) | inactive: -0.062 | inactive: 0.231 | inactive: 0.077 |  | inactive: -0.068
52 | ATF2 (UniProt P15336) | inactive: -0.016 | inactive: -0.097 | inactive: -0.057 | inactive: -0.008 | inactive: -0.091
53 | ATP6V1A (UniProt P38606) | inactive: -0.001 | inactive: 0.059 | inactive: -0.002 | inactive: -0.052 | inactive: 0.009
